For assay [1], the target named is Myc-tagged IQ3 (aa806-825)-deleted IQGAP1 (UniProt P46940). Put plainly: proximity ligation; UM-SCC47/HEK293FT cells transfected with Myc-tagged IQGAP1 WT or ΔIQ3, starved 24 h, with or without 10 ng/ml EGF 15 min, fixed in 4% PFA; Duolink in situ kit; Myc tag against the endogenous partner.
The target is the same in assay [2]. The experiment in a line: co-IP; Myc-tagged IQGAP1 WT or ΔIQ3 transfected in HEK293FT (Fig. 3a, Supplementary Fig. 6a) or UM-SCC47 (Fig. 4d) cells, starved 24 h, with or without 10 ng/ml EGF 15 min; lysis in 25 mM Tris-HCl pH 7.4, 150 mM NaCl, 1 mM EDTA, 1% NP-40, 5% glycerol; anti-c-Myc agarose 2 h at 4 °C; endogenous partners by blot.

Chains of the proteins cited; added tags and fusions are not shown. Lines headed by an entry give the natural chain unless they say otherwise; changes in a name come on top.
UniProt P46940: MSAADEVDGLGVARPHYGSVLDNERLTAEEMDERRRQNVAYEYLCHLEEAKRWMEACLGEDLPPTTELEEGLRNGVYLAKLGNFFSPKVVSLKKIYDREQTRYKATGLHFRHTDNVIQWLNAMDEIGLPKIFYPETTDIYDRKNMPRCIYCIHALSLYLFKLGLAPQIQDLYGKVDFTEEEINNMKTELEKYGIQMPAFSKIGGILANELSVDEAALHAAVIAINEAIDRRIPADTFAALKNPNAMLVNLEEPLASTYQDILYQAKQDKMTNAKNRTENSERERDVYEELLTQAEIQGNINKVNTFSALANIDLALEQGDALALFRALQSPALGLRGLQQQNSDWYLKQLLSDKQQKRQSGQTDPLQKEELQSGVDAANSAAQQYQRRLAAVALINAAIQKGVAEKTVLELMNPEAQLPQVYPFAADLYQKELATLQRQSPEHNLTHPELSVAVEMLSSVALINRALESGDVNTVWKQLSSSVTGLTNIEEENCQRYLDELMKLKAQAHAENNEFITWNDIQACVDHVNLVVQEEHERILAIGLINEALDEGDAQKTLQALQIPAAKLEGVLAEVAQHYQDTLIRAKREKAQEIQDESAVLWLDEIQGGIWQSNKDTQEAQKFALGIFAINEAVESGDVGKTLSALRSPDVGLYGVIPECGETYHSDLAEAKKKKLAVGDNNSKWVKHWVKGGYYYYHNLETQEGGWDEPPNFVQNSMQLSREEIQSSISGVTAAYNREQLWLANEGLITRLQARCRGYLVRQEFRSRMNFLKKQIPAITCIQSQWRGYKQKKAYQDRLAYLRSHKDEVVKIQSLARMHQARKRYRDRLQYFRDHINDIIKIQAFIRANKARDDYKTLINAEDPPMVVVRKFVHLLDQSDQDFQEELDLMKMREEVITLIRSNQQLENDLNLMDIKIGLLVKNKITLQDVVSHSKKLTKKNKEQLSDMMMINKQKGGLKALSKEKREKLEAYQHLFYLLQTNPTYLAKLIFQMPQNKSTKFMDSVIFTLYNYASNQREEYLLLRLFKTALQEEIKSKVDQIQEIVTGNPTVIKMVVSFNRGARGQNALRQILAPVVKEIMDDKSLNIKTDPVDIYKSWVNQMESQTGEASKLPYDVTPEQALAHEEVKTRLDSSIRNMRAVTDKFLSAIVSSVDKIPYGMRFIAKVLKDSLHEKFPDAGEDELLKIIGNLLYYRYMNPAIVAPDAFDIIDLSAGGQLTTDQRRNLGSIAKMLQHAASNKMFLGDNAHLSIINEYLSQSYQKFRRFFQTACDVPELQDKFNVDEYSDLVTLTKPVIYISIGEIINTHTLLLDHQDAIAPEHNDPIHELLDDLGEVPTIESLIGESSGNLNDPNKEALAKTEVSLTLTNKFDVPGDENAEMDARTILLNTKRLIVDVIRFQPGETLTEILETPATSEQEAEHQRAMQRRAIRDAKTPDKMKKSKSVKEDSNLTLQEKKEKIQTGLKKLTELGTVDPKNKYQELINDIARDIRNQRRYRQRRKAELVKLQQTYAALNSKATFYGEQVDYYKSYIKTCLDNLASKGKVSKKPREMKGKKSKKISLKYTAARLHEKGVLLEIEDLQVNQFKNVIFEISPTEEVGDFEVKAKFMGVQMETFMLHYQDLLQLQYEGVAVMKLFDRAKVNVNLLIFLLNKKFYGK
UniProt P27986: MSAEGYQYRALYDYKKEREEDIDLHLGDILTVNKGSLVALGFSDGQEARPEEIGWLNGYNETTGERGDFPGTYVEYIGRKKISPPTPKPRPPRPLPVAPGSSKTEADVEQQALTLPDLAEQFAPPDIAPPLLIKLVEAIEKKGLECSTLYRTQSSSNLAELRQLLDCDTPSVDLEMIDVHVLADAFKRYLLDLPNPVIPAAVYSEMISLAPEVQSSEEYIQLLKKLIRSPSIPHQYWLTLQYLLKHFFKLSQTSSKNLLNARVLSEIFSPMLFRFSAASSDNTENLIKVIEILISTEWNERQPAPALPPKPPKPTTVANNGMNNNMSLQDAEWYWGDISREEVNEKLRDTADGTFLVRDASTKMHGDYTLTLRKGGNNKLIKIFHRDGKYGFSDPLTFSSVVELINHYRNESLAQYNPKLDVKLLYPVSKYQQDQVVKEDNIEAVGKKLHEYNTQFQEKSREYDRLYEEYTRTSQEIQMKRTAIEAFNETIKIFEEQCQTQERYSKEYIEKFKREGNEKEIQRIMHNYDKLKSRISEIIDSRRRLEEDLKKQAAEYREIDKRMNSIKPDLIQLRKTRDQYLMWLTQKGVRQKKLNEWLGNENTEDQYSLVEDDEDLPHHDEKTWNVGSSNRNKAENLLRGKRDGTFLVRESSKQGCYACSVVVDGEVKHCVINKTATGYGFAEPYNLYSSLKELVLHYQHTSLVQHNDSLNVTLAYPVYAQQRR

These are yes or no findings as the source states them, for the method shown. In cells and extracts the contact can be indirect. Binding calls can cover weak binding; strength is not graded here.

For the substance “Epidermal growth factor receptor (EGFR) (from UniProt P00533 25-1210)”, the binding result in assay [1] and in assay [2] was “binds” throughout.

On to “p85α regulatory subunit of PI3K (from UniProt P27986 1-724)”, for which the binding result in assay [1] and in assay [2] was “binds” throughout.

The values are drawn from paper PMC6591252.
